Assay [1] concerns Caenorhabditis elegans ST65 (ncIs13[ajm-1::GFP]). As to the kind of experiment: 'Larvae/adult' ratio (MetaXpress pharynx counts; minimum value 1, so it appears to include adults; growth inhibition read-out). To be noted: 10 µM; exposure time: 4-5 days from L1 at 20°C.
Assay [2] has the same test system. Kind of assay: vulvae per adult worm (MAPK/ERK-dependent vulval induction, MetaXpress) (vulvae/adult); higher = more vulval induction (less MAPK/ERK inhibition). The note with it: 10 µM; exposure time: 4-5 days from L1 at 20°C.

Counter-ions that a name gives are not always drawn. The list shows a part of the results. Single values are uncertain, as repeats are few or missing.

Turning to `CCNC(=O)c1noc(-c2cc(C(C)C)c(O)cc2O)c1-c1ccc(CN2CCOCC2)cc1` [Luminespib (AUY-922, NVP-AUY922)], the “'Larvae/adult' ratio” value in assay [1] came to 2.03. The “vulvae per adult worm” value in assay [2] turned out to be 0.806.
For `C[C@@H]1CCN(C(=O)CC#N)C[C@@H]1N(C)c1ncnc2[nH]ccc12` the same measures were 1.65 and 0.973.
With `CC(=O)N(O)CCCCCNC(=O)CCC(=O)N(O)CCCCCNC(=O)CCC(=O)N(O)CCCCCN` [Deferoxamine mesylate], the “'Larvae/adult' ratio” value in assay [1] turned out to be 2.29. In addition, the “vulvae per adult worm” value in assay [2] was found to be 0.672.
With `CCN(CC)C(=S)SSC(=S)N(CC)CC` [Disulfiram], the “'Larvae/adult' ratio” value in assay [1] is 2.29. Further, the “vulvae per adult worm” value in assay [2] came out at 0.857.
With `CC#CC(=O)N1CC[C@@H](n2c(=O)n(-c3ccc(Oc4ccccc4)cc3)c3c(N)ncnc32)C1` [ONO-4059 (GS-4059) hydrochloride], in assay [1], the “'Larvae/adult' ratio” value came out at 3.44. Also, the “vulvae per adult worm” value in assay [2] worked out at 1.28.
In the case of `Cc1c(Cn2c(C)nc3c(C(=O)O)cc(N4CCOCC4)cc32)cccc1C(F)(F)F`, the “'Larvae/adult' ratio” value in assay [1] was 2.61. Moreover, the “vulvae per adult worm” value in assay [2] worked out at 1.07.
In the same order, the values of `C[C@@H](Nc1cc(F)cc(F)c1)c1cc(C(=O)N(C)C)cc2c(=O)cc(N3CCOCC3)oc12` are 2.04 and 0.889.
On to `CN(C)C/C=C/C(=O)Nc1cc2c(Nc3ccc(F)c(Cl)c3)ncnc2cc1O[C@H]1CCOC1` [Afatinib (BIBW2992)], for which the “'Larvae/adult' ratio” value in assay [1] came out at 1.68. The “vulvae per adult worm” value in assay [2] came to 0.892.
Consider `CC(C)[C@H](C(=O)Nc1ccc(C(=O)NO)cc1)c1ccccc1`, for which the “'Larvae/adult' ratio” value in assay [1] worked out at 2.57. Moreover, in assay [2], the “vulvae per adult worm” value was determined as 0.867.
Turning to `CC(=O)Nc1ccc(C(=O)Nc2ccccc2N)cc1` [Tacedinaline (CI994)], the “'Larvae/adult' ratio” value in assay [1] was found to be 1.67. Besides, the “vulvae per adult worm” value in assay [2] is 1.08.
As to `CNC(=O)c1cc(COc2nnc(Nc3ccc(Cl)cc3)c3ccoc23)ccn1` [Telatinib], in assay [1], the “'Larvae/adult' ratio” value came to 2.25. Also, in assay [2], the “vulvae per adult worm” value came out at 1.07.
On to `Cn1nnc2c(C(N)=O)ncn2c1=O` [Temozolomide], for which the “'Larvae/adult' ratio” value in assay [1] came to 2.42. For the same molecule, the “vulvae per adult worm” value in assay [2] was found to be 1.09.
`COc1cc2ncnc(Nc3ccc(F)c(Cl)c3)c2cc1NC(=O)/C=C/CN1CCCCC1`: the “'Larvae/adult' ratio” value in assay [1] was 2. In addition, the “vulvae per adult worm” value in assay [2] is 0.884.
Take `C=CC[C@@H]1/C=C(\C)C[C@H](C)C[C@H](OC)[C@H]2O[C@@](O)(C(=O)C(=O)N3CCCC[C@H]3C(=O)O[C@H](/C(C)=C/[C@@H]3CC[C@@H](O)[C@H](OC)C3)[C@H](C)[C@@H](O)CC1=O)[C@H](C)C[C@@H]2OC` [Tacrolimus (FK506)]: in assay [1], the “'Larvae/adult' ratio” value came to 1.86. In assay [2], the “vulvae per adult worm” value is 0.714.
On to `c1cc(CN2CCCNCCNCCCNCC2)ccc1CN1CCCNCCNCCCNCC1` [Plerixafor (AMD3100)], for which, in assay [1], the “'Larvae/adult' ratio” value was found to be 2.53. Moreover, the “vulvae per adult worm” value in assay [2] stood at 1.12.
Turning to `Cc1[nH]nc(C(F)(F)F)c1Cc1sc2c(c1C(=O)N1C[C@](C)(O)CO1)c(=O)n(C)c(=O)n2C(C)C`, in assay [1], the “'Larvae/adult' ratio” value is 2.59. Further, the “vulvae per adult worm” value in assay [2] stood at 0.923.
Turning to `Cc1cc(Nc2cc(N3CCN(C)CC3)nc(/C=C/c3ccccc3)n2)n[nH]1`, the “'Larvae/adult' ratio” value in assay [1] worked out at 2.07. The “vulvae per adult worm” value in assay [2] came to 0.966.
As to `Cc1cc(-c2nc(-c3ccc(OC(F)(F)F)cc3)no2)nn1Cc1ccnc(N2CCN(C3CC3)CC2)c1`, the “'Larvae/adult' ratio” value in assay [1] turned out to be 1.87. The “vulvae per adult worm” value in assay [2] was found to be 0.522.

These data come from the supplement of paper PMC11409438.
